Source: paper PMC9896697
These are yes or no findings as the source states them, for the method shown. In cells and extracts the contact can be indirect. Some results given as binding are weak or reduced against the parent protein; the word gives no strength. For some assays here: Tags and fused reporters may be left off the sequences shown.

Amino acid sequences for entries named in this document (tags omitted).
UniProt P46934: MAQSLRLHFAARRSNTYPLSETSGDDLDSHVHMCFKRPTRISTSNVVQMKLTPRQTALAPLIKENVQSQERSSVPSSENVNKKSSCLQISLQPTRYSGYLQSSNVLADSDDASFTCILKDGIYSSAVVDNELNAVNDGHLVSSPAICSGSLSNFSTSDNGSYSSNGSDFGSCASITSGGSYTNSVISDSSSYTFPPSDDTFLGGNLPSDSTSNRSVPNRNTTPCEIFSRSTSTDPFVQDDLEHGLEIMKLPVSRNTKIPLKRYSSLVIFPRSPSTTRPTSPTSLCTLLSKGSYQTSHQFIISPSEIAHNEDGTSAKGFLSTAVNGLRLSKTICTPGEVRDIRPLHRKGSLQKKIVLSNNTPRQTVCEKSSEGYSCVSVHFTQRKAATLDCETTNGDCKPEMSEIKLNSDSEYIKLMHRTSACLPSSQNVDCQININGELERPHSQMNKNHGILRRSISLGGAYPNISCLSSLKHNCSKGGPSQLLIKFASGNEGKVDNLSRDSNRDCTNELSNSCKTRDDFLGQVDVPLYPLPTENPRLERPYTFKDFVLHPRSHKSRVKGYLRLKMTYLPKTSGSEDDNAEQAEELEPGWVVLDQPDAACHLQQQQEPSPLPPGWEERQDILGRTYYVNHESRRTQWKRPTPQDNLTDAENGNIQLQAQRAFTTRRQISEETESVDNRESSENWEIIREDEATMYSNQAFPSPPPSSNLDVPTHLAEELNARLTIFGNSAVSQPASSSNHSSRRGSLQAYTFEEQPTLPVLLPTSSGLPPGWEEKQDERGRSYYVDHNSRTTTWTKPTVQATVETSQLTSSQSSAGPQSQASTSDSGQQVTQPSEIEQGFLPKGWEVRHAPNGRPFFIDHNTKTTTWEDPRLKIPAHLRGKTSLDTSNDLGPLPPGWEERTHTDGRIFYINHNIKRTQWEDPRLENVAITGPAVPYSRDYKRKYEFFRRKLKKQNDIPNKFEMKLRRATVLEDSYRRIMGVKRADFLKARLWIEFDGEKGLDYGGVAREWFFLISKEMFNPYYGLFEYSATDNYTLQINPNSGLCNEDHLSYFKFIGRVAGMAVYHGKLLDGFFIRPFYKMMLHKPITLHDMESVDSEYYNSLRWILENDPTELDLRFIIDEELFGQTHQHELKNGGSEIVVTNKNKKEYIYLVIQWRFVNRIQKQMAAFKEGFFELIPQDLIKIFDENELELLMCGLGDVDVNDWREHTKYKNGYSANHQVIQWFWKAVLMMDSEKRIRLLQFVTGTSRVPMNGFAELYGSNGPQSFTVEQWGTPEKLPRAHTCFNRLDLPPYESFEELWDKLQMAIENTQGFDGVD
UniProt Q96P20: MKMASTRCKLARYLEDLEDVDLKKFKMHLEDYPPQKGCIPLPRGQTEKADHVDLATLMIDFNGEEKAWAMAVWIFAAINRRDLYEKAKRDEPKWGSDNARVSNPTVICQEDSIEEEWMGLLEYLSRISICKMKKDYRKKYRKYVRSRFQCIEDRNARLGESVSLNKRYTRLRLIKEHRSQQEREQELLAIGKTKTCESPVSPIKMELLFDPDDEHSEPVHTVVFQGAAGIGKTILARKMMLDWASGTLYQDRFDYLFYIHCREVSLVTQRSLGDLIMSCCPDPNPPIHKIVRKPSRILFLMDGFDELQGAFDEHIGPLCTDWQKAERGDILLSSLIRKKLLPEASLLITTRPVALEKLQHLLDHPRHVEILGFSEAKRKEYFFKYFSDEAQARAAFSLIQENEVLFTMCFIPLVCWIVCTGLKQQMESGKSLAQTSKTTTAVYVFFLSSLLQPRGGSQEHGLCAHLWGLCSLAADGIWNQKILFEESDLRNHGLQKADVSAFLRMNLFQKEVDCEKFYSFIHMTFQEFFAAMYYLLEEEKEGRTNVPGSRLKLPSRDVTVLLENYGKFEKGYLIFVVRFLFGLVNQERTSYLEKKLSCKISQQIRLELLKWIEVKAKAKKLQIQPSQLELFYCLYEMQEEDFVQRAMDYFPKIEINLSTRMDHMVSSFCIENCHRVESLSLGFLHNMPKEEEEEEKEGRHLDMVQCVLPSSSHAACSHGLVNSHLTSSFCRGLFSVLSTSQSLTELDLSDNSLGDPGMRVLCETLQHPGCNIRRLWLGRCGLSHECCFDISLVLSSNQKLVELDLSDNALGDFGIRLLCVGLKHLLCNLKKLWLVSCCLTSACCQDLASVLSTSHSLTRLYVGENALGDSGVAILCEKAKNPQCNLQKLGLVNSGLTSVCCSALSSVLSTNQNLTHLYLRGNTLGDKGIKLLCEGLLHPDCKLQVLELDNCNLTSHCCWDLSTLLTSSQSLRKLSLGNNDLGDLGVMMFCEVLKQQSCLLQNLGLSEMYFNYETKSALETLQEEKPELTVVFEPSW

Key:
[1] = target: T1, Myc-SF3A2 (UniProt Q15428); assay: co-IP; HEK293T cells transfected with Myc-SF3A2 and HA-UB, with empty vector or Flag-NEDD4; lysates immunoprecipitated (legend names an anti-RIP1 antibody), with or without LPS and Nig
T1 sequence: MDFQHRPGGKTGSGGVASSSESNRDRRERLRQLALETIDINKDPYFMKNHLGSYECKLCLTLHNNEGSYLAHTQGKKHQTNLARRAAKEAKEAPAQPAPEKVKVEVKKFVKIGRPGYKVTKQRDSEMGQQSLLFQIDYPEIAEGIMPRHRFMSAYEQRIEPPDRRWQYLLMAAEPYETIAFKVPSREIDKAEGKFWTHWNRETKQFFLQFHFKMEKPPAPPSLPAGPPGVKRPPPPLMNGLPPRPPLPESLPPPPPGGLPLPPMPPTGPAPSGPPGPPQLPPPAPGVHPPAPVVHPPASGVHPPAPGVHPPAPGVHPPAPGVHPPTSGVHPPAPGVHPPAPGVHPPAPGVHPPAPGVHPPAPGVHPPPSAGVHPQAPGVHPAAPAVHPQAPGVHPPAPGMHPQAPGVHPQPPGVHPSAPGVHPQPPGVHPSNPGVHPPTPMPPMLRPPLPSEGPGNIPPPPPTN

[2] = target: T2, SF3A2 (endogenous, THP-1 cells) (human (endogenous in THP-1)) (UniProt Q15428); assay: co-IP; lysates of THP-1 cells, resting or treated with LPS 4 h then Nig 1 h, immunoprecipitated with anti-SF3A2 antibody
T2 sequence: T1 sequence

Row | Substance | binding [1] | binding [2]
1 | Flag-NEDD4 (from UniProt P46934 1-1319) (enzyme) | binds | 
2 | NLRP3 (endogenous, THP-1 cells) (from UniProt Q96P20 1-1036) |  | binds
